Assay results reported in paper PMC6708219.
Results are given in words; binding and its absence hold for the method and conditions named. In cells and extracts the contact can be indirect. Some results given as binding are weak or reduced against the parent protein; the word gives no strength.

Protein sequences, listed by entry. Tags and fused reporters are not part of them. Lines headed by an entry give the natural chain unless they say otherwise; changes in a name come on top. Residues count along the entry.
UniProt O14763, residues 56-440: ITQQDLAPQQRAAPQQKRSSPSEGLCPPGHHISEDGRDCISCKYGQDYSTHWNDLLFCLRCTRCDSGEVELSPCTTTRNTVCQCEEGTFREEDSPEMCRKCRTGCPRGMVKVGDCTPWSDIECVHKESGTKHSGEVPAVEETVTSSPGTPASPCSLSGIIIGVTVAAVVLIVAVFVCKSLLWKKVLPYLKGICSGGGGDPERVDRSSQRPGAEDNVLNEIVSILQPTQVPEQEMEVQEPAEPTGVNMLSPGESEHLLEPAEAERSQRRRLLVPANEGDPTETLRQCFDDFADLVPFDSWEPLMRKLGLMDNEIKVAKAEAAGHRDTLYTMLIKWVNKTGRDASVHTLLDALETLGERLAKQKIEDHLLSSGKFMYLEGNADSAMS
UniProt Q14790: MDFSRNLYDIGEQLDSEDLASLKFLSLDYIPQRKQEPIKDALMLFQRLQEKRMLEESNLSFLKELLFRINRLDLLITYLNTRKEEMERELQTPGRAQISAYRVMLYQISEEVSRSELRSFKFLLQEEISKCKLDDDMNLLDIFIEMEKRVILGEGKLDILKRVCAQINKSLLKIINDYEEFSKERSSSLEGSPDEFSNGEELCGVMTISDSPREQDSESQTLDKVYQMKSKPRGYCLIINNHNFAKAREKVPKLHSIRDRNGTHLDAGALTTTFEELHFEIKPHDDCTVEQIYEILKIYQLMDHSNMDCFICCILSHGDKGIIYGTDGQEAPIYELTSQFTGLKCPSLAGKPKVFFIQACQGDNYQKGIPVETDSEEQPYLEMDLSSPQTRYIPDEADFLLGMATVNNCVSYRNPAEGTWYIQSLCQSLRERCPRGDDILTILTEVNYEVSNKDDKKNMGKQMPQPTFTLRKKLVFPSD
UniProt Q13158: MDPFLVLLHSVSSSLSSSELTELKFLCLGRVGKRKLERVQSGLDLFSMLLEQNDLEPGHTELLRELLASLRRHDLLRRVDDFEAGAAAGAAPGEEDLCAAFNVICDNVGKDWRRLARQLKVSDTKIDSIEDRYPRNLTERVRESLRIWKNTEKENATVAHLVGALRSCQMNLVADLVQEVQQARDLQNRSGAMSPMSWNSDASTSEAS

Key:
[1] = target: TRAIL-R2/DR5 (human (endogenous in BxPC3)) (UniProt O14763); test: co-IP; BxPC3 cells incubated with 9F7-F11 (24 h to 120 h); 2 mg lysate precipitated overnight at 4 C with Dynabeads cross-linked with anti-DR5 antibody D4E7, ten washes in CHAPS buffer; western blot for caspase-8 and FADD
[2] = target: TRAIL-R2/DR5 (human (endogenous in BxPC3)) (UniProt O14763); test: co-IP; as a5 (DR5 precipitation with D4E7 beads), untreated BxPC3 cells; compared with control IgG

Row | Substance | binding [1] | binding [2]
1 | caspase-8 p18 cleavage fragment (from UniProt Q14790 217-374) (domain or fragment) | binds | –
2 | Fas-associated protein with death domain (FADD) (from UniProt Q13158 1-208) | binds | binds weakly
3 | pro-caspase 8 (from UniProt Q14790 1-479) (enzyme) | – | binds weakly
